PMC8836073, “Activatable Peptides for Rapid and Simple Visualization of Protease Activity Secreted in Living Cells” (International Journal of Molecular Sciences, 2022)

Tested on: HT-1080 cells (MMP2-positive)
Test: Live cell confocal imaging of peptide uptake in HT-1080 cells
Assay type: cell-based, Human
Protocol: For live cell imaging, HT-1080 or HT-29 cells were cultured in Lab-Tek II chambered coverglass (Thermo Fisher Scientific) containers in RPMI-1640 media containing 10% FBS and 1× P/S at 37 °C. When the cells were 80% confluent, the culture medium was rinsed and changed to a fresh serum-free medium, followed by the addition of peptide probes at a final concentration of 10 μM. For organelle images, nuclei and lysosomes (or late endosomes) were stained with NucBlue (1 drop) and Lysotracker Red (50 nM) in serum-free media, respectively, and incubated in the dark for 10 min. After washing of the cells and removal of the chamber, cells adhering to the coverglass were subjected to bright-field or fluorescent images using a confocal microscope (Nikon C2si+, Japan). The excitation/emission wavelengths of NucBlue, FITC, and Lysotracker Red were 352/454 nm, 488/525 nm, and 577/590 nm, respectively. Typically, images were collected using a pixel dwell time of 10.3 μs on a 512 × 512 pixel image with 1 mW light power at the objective through a pinhole (60 μm) to reach the PMT. The frame rate was rather slow; the frame rate was about 0.255 FPS (frame per second) for a 512 × 512 frame (i.e., 1 frame per 3.9 s). To gain time-lapse images for FITC in living cells, one video file was constructed with images taken every 20 s for 30 min. Imaging analysis was performed using the NIS-Elements microscope imaging software (Ver 2.0).

[1] = HT-1080, 10 μM Pep1, serum-free media, 37 °C, imaging for 24 h (Figure S1)

Question: With EEEEGGIPVSLRSGGGRRRRK-FITC [Pep1] as the substance, how does the “fluorescence intensity in continuous live cell imaging, after 12 h” value [1] read?
Answer: Its value is “decreased”.

Question: And the “fluorescence intensity in continuous live cell imaging, after 24 h” value [1]?
Answer: Its value is “completely lost”.

Question: What about the intracellular localization (living HT-1080, 30 min after Pep1 treatment, NucBlue and Lysotracker Red co-staining) of the same substance?
Answer: The intracellular localization was “around the cell membrane or in the cytosol”.
